PubChem BioAssay AID1259254 – NCATS – 2017
In all, the deposit lists about 59,000 reagents; below is an unselected part. About 1,550 of them (2.6%) count as active. 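G2 share is only a proxy for re-replication; each gene was hit by three separate siRNAs, and active genes were retested.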 Reagents against one gene are numbered here. Further read-outs or replicates are left out here. The record does not give: the amount of reagent.

Aim: 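Genome-wide screen for genes that prevent DNA re-replication in cancer cells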 (primary screen)
Cell system: human HCT116 colorectal cancer cells
Reagents: single siRNA against human genes
Time to read-out: 3 days
Read-out: 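Imaged Hoechst DNA stain sorts each cell into a cycle phase by DNA amount; per plate, G2 fraction set to 0% for non-targeting and 100% for GMNN siRNA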
Scale: G2 robust z-score: higher = more G2 cells, more excess DNA replication
Call rule: 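An siRNA counts as active if its G2 robust z-score lies at least 5 MADs above the screen median; here such calls match roughly 38% of GMNN control or more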

| gene | siRNA no. | G2 robust z-score | Outcome |
| --- | --- | --- | --- |
| SEL1L2 | 1 | -0.187 | inactive |
| SEL1L2 | 2 | 1 | inactive |
| SEL1L2 | 3 | -0.416 | inactive |
| KLHDC3 | 1 | 0.475 | inactive |
| KLHDC3 | 2 | 0.236 | inactive |
| KLHDC3 | 3 | -0.214 | inactive |
| PGAP1 | 1 | 5.32 | active |
| PGAP1 | 2 | -0.342 | inactive |
| PGAP1 | 3 | 1.43 | inactive |
| RPL37 | 1 | 5.85 | active |
| RPL37 | 2 | 2.85 | inactive |
| RPL37 | 3 | 1.18 | inactive |
| TTC38 | 1 | -1.32 | inactive |
| TTC38 | 2 | -0.934 | inactive |
| TTC38 | 3 | 0.843 | inactive |
| RBM28 | 1 | 0.95 | inactive |
| RBM28 | 2 | -0.955 | inactive |
| RBM28 | 3 | -0.399 | inactive |
| LRRC40 | 1 | -1.05 | inactive |
| LRRC40 | 2 | 0.813 | inactive |
| LRRC40 | 3 | -0.2 | inactive |
| OR9A2 | 1 | 1.21 | inactive |
| OR9A2 | 2 | -0.427 | inactive |
| OR9A2 | 3 | -0.332 | inactive |
| OR1A1 | 1 | -0.311 | inactive |
| OR1A1 | 2 | -0.607 | inactive |
| OR1A1 | 3 | -0.539 | inactive |
| HMGN4 | 1 | -0.0276 | inactive |
| HMGN4 | 2 | -0.00891 | inactive |
| HMGN4 | 3 | -0.951 | inactive |

Reformatted: entries from further up.
gene	siRNA no.	G2 robust z-score	Outcome
LRRC40	3	-0.2	inactive
OR9A2	1	1.21	inactive
